Laboratory results published in doi:10.1101/258285.
Where a chain is given by its changes, count along the chain named. These are yes or no findings as the source states them, for the method shown. Some entries that bind do so weakly or less than the wild type. Values belong to the binder of their own block, whether it stands above or below them.

Amino acid sequences for entries named in this document (tags omitted).
UniProt P09429: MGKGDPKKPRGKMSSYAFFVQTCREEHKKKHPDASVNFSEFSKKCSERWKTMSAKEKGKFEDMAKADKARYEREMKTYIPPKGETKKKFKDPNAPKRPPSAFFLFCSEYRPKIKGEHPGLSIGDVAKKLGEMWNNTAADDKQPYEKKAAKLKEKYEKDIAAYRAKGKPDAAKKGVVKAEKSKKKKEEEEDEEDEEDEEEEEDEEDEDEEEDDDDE
UniProt Q06830: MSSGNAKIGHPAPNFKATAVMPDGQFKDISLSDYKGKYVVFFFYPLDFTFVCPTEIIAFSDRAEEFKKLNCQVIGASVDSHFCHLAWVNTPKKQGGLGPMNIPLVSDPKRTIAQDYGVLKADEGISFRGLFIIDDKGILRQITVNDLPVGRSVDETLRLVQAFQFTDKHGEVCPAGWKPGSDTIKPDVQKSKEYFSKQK

How the values were obtained:
purified HMGB1 = purified HMGB1 (UniProt P09429); assay: co-IP
[1] = biological target: T1, endogenous mouse PrxI (mouse (endogenous in BMDMs)), P35700; assay: nonreducing SDS-PAGE with immunoblot; details: remark: other sources report otherwise
T1 chain: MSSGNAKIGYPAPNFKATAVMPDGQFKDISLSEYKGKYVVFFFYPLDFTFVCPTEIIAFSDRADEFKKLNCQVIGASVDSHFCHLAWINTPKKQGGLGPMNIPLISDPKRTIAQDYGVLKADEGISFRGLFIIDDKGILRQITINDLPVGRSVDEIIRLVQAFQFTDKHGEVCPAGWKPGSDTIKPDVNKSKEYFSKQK

[2] = biological target: T2, endogenous mouse PrxII (mouse (endogenous in MEFs and BMDMs)), Q61171; assay: nonreducing SDS-PAGE with immunoblot; details: remark: other sources report otherwise
T2 chain: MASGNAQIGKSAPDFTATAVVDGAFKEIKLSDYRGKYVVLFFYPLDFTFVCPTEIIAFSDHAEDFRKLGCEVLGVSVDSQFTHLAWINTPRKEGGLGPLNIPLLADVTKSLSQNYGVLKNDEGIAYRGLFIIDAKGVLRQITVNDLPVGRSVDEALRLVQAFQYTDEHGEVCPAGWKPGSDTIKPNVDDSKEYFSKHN

B3: endogenous mouse PrxII, Q61171 1-198 (enzyme)
chain: T2 chain
binding [2]: binds

B4: purified PrxII (enzyme, UniProt P32119 1-198)
chain: MASGNARIGKPAPDFKATAVVDGAFKEVKLSDYKGKYVVLFFYPLDFTFVCPTEIIAFSNRAEDFRKLGCEVLGVSVDSQFTHLAWINTPRKEGGLGPLNIPLLADVTRRLSEDYGVLKTDEGIAYRGLFIIDGKGVLRQITVNDLPVGRSVDEALRLVQAFQYTDEHGEVCPAGWKPGSDTIKPNVDDSKEYFSKHN
binding (purified HMGB1): binds

Next, values leading:

binding (purified HMGB1): binds
B1: purified PrxI (enzyme, UniProt Q06830 1-199)
chain: T1 chain with Y10H, E33D, D64E, I88V, I105V, I144V, I156T, I157L, N189Q

binding [1]: binds
B2: endogenous mouse PrxI, P35700 1-199 (enzyme)
chain: T1 chain
